Measurements reported in publication PMC5291280.
No constants are given. Whether binding was seen depends on the method and setting. Binding seen in cells or lysates may run through a third protein. Some binding calls cover weakened binding; strength is not graded here. For some assays here: Tags and fused reporters may be left off the sequences shown.

By UniProt entry, the sequences of proteins in these tests, tags left out.
UniProt P26196: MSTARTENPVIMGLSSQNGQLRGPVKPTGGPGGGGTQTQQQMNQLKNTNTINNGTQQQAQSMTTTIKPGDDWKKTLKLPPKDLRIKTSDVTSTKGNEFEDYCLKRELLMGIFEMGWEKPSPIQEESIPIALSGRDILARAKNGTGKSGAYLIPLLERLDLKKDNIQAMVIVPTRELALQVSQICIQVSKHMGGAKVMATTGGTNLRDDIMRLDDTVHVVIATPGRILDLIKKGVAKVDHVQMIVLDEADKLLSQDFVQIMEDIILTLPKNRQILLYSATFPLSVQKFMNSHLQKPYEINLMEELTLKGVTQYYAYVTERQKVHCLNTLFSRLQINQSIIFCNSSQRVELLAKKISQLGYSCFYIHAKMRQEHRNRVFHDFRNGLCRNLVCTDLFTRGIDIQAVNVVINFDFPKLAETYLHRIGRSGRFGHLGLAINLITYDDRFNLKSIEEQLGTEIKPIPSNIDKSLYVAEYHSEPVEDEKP
UniProt Q8ND56: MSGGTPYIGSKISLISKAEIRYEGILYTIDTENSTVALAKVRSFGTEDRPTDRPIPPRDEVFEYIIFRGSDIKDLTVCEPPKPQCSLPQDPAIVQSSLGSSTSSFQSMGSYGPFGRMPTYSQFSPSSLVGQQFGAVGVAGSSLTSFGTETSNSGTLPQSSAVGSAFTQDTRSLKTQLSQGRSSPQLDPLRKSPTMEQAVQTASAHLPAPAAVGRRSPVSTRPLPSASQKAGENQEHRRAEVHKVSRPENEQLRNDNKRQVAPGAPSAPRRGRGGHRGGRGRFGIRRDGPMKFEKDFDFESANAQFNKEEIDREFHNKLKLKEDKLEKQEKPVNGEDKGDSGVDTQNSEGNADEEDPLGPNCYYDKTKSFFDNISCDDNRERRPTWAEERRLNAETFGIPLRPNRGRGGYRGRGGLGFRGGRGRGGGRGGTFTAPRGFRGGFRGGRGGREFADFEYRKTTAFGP

T1: FLAG-4E-T 1-900 (human) (UniProt Q9NRA8)
T1 sequence: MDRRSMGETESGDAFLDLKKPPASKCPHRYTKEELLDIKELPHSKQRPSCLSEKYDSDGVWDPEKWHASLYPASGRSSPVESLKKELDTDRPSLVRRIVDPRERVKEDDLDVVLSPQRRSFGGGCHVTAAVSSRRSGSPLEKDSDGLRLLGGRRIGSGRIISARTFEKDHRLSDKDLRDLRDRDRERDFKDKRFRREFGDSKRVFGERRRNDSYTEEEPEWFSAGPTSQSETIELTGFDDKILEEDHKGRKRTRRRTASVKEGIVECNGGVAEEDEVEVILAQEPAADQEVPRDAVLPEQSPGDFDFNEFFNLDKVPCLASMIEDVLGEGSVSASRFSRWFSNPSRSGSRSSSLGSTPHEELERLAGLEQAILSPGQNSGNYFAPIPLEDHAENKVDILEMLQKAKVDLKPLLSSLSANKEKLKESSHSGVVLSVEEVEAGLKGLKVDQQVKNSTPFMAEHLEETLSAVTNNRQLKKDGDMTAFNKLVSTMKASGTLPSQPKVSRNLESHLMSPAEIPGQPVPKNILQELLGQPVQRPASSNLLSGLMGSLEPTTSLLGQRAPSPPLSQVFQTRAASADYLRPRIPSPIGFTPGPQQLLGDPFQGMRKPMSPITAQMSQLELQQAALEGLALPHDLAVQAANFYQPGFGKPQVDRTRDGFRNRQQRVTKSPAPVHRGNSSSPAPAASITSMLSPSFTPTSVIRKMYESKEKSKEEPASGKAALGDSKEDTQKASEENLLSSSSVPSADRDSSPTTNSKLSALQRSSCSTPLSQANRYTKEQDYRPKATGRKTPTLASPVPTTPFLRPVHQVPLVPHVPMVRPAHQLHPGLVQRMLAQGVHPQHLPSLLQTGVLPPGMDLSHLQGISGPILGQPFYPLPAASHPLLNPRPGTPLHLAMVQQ

T2: FLAG-unrip (human) (UniProt Q9Y3F4)
T2 sequence: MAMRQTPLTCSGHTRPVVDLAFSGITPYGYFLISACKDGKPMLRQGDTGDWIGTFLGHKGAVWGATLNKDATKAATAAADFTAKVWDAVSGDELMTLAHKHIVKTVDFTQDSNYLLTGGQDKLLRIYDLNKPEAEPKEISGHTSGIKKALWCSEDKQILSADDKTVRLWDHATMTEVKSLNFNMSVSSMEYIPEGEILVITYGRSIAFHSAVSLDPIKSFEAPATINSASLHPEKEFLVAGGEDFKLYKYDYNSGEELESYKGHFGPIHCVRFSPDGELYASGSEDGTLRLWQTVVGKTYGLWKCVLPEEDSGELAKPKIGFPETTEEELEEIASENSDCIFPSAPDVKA

T3: FLAG-UNRΔC (UNR1-744) (human) (UniProt O75534)
T3 sequence: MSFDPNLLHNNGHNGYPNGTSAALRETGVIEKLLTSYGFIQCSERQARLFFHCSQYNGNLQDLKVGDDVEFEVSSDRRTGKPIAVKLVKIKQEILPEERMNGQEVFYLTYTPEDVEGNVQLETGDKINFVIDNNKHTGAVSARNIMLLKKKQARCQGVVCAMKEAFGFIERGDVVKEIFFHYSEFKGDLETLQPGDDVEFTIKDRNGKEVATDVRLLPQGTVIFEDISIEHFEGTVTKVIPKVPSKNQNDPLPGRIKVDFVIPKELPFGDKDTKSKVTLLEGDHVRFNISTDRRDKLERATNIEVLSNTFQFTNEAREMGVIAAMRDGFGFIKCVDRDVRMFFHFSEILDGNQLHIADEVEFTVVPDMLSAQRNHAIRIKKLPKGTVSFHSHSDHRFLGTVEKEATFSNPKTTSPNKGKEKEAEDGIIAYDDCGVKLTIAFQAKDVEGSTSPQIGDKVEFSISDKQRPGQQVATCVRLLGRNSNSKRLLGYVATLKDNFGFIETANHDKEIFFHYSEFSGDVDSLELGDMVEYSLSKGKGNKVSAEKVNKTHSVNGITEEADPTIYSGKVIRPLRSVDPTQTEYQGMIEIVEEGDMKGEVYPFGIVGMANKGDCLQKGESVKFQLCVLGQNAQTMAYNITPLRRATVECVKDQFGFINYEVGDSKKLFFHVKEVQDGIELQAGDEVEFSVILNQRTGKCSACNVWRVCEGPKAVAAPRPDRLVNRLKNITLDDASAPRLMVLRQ


Experiments:
Experiment in all cases: co-IP; anti-FLAG M2 beads on lysates of transfected HEK293T cells, eluted with SDS loading buffer, western blot; lysates with or without RNase A (40 μg/ml); in some panels cells also given siRNA against β-globin, DDX6, UNR or unrip, or co-transfected with HA-DDX6
FLAG-4E-T 1-900 (human) = biological target: T1, FLAG-4E-T 1-900 (human)
FLAG-unrip (human) = biological target: T2, FLAG-unrip (human)
FLAG-DDX6 (human) = FLAG-DDX6 (human) (UniProt P26196)
[1] = biological target: T3, FLAG-UNRΔC (UNR1-744) (human)

| Molecule | binding (FLAG-4E-T 1-900 (human)) | binding (FLAG-unrip (human)) | binding (FLAG-DDX6 (human)) | binding [1] |
| --- | --- | --- | --- | --- |
| LSM14A, endogenous (from UniProt Q8ND56 1-463) | binds | binds | binds |  |
| PAT1B, endogenous (protein, UniProt Q86TB9 1-770) MFRYESLEDCPLDEDEDAFQGLGEEDEEIDQFNDDTFGSGAVDDDWQEAHERLAELEEKLPVAVNEQTGNGERDEMDLLGDHEENLAERLSKMVIENELEDPAIMRAVQTRPVLQPQPGSLNSSIWDGSEVLRRIRGPLLAQEMPTVSVLEYALPQRPPQGPEDDRDLSERALPRRSTSPIIGSPPVRAVPIGTPPKQMAVPSFTQQILCPKPVHVRPPMPPRYPAPYGERMSPNQLCSVPNSSLLGHPFPPSVPPVLSPLQRAQLLGGAQLQPGRMSPSQFARVPGFVGSPLAAMNPKLLQGRVGQMLPPAPGFRAFFSAPPSATPPPQQHPPGPGPHLQNLRSQAPMFRPDTTHLHPQHRRLLHQRQQQNRSQHRNLNGAGDRGSHRSSHQDHLRKDPYANLMLQREKDWVSKIQMMQLQSTDPYLDDFYYQNYFEKLEKLSAAEEIQGDGPKKERTKLITPQVAKLEHAYKPVQFEGSLGKLTVSSVNNPRKMIDAVVTSRSEDDETKEKQVRDKRRKTLVIIEKTYSLLLDVEDYERRYLLSLEEERPALMDDRKHKICSMYDNLRGKLPGQERPSDDHFVQIMCIRKGKRMVARILPFLSTEQAADILMTTARNLPFLIKKDAQDEVLPCLLSPFSLLLYHLPSVSITSLLRQLMNLPQSAATPALSNPHLTAVLQNKFGLSLLLILLSRGEDLQSSDPATESTQNNQWTEVMFMATRELLRIPQAALAKPISIPTNLVSLFSRYVDRQKLNLLETKLQLVQGIR |  |  | binds |  |
| CNOT4, endogenous (protein, UniProt O95628 1-575) MSRSPDAKEDPVECPLCMEPLEIDDINFFPCTCGYQICRFCWHRIRTDENGLCPACRKPYPEDPAVYKPLSQEELQRIKNEKKQKQNERKQKISENRKHLASVRVVQKNLVFVVGLSQRLADPEVLKRPEYFGKFGKIHKVVINNSTSYAGSQGPSASAYVTYIRSEDALRAIQCVNNVVVDGRTLKASLGTTKYCSYFLKNMQCPKPDCMYLHELGDEAASFTKEEMQAGKHQEYEQKLLQELYKLNPNFLQLSTGSVDKNKNKVTPLQRYDTPIDKPSDSLSIGNGDNSQQISNSDTPSPPPGLSKSNPVIPISSSNHSARSPFEGAVTESQSLFSDNFRHPNPIPSGLPPFPSSPQTSSDWPTAPEPQSLFTSETIPVSSSTDWQAAFGFGSSKQPEDDLGFDPFDVTRKALADLIEKELSVQDQPSLSPTSLQNSSSHTTTAKGPGSGFLHPAAATNANSLNSTFSVLPQRFPQFQQHRAVYNSFSFPGQAARYPWMAFPRNSIMHLNHTANPTSNSNFLDLNLPPQHNTGLGGIPVAGEEEVKVSTMPLSTSSHSLQQGQQPTSLHTTVA |  |  |  | binds |
